No constants are given. Whether binding was seen depends on the method and setting. Binding seen in cells or lysates may run through a third protein. Some entries that bind do so weakly or less than the wild type. Tags and fused reporters may be left off the sequences shown.
Target: apoptosis signal-regulating kinase 1 (ASK1), Flag-tagged (UniProt O35099)
Assay: co-IP; exogenous co-IP in mouse AML-12 hepatocytes transfected with HA-GSTM1 and Flag-ASK1; cells lysed in co-IP buffer on ice 30 min, supernatant incubated with Flag Magnetic Beads overnight at 4 °C, washed three times, western blotting

Protein sequences, listed by entry. Tags and fused reporters are not part of them.
UniProt O35099: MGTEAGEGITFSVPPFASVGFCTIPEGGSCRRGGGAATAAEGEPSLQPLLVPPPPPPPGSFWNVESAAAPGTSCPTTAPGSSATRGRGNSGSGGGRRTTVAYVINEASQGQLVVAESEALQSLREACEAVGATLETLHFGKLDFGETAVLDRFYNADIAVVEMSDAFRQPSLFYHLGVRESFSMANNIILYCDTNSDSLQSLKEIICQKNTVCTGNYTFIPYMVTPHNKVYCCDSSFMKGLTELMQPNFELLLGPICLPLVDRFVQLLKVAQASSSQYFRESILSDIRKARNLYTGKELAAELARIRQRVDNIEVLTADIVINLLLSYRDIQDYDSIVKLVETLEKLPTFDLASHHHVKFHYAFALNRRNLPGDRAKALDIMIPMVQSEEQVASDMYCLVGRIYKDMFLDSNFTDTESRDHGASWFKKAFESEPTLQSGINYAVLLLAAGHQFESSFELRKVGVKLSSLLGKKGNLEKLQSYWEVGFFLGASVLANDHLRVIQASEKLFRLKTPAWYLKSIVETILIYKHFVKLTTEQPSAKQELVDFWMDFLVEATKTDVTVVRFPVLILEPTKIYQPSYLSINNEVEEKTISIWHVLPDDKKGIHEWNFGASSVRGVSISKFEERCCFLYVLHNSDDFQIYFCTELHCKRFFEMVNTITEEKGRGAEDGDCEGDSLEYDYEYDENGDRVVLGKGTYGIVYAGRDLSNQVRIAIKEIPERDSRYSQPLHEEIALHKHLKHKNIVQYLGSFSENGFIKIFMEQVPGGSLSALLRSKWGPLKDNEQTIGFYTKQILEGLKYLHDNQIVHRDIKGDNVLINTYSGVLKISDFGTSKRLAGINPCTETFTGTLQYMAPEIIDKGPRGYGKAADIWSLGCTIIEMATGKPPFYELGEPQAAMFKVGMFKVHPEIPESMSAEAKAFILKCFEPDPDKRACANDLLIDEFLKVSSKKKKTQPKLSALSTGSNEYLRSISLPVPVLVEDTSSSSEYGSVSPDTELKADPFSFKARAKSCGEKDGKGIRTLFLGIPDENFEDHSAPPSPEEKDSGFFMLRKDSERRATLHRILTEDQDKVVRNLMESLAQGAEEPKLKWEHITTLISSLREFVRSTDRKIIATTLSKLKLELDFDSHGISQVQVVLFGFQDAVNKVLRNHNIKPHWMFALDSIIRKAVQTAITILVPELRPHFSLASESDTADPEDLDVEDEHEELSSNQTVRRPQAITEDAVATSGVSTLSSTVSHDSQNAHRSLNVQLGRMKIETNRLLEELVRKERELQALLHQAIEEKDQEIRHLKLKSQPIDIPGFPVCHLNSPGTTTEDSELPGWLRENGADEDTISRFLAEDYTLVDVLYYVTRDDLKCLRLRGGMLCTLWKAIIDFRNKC

B1: glutathione S-transferase mu 1 (GSTM1), HA-tagged (enzyme, UniProt P10649 1-218)
chain: MPMILGYWNVRGLTHPIRMLLEYTDSSYDEKRYTMGDAPDFDRSQWLNEKFKLGLDFPNLPYLIDGSHKITQSNAILRYLARKHHLDGETEEERIRADIVENQVMDTRMQLIMLCYNPDFEKQKPEFLKTIPEKMKLYSEFLGKRPWFAGDKVTYVDFLAYDILDQYRMFEPKCLDAFPNLRDFLARFEGLKKISAYMKSSRYIATPIFSKMAHWSNK
binding: binds
